Reference: the supplement of paper PMC12823440, “Inhibitors supercharge kinase turnover through native proteolytic circuits” (Nature, 2025)
Some of the results follow. The calls rarely recur for the same compound in another form.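 Kinases were expressed as nanoluciferase fusions in K562 cells and luminescence was read every 4 h between 2 and 18 h as percent of control, DMSO set to 100% and a positive control to 0%. A time point counts as decreased when the signal drops significantly (2 sigma). The hit call is the authors' own, does not follow from the count of time points alone, and its rule is not shown.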

By UniProt entry, the sequences of proteins in these tests, tags left out. Where a name states a change or a piece, a line headed by the entry shows the natural chain unless it says otherwise.
UniProt P07949, whole entry, looked up: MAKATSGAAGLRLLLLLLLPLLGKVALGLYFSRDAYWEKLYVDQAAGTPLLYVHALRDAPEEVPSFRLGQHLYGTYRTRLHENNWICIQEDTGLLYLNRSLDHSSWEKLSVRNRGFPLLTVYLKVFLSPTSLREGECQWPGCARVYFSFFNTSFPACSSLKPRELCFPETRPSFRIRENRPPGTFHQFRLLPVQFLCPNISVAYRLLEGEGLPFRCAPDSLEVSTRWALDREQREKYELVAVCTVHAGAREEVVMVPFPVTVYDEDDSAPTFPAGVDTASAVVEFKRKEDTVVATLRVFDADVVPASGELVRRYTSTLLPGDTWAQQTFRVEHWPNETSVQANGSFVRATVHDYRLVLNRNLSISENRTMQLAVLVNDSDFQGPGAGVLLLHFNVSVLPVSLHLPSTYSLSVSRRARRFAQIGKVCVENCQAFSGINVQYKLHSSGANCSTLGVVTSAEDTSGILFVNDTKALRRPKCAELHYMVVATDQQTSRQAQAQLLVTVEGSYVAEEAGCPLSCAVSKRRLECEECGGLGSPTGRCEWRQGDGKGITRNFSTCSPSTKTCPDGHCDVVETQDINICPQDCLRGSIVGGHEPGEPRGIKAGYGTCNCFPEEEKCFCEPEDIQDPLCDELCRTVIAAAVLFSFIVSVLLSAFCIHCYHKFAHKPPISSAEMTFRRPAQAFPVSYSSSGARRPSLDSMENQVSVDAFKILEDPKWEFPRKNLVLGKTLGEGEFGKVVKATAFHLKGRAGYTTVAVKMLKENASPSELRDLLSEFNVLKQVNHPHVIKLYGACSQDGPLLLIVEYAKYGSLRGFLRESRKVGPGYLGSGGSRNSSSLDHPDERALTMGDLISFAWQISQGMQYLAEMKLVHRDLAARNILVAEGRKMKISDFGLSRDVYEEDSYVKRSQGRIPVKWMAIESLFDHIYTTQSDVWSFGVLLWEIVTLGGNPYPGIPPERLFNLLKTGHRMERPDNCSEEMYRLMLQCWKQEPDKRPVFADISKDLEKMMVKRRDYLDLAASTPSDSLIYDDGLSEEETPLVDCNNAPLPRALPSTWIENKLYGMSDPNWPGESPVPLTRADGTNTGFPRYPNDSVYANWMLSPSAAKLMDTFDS
UniProt P07949, whole entry M918T, looked up: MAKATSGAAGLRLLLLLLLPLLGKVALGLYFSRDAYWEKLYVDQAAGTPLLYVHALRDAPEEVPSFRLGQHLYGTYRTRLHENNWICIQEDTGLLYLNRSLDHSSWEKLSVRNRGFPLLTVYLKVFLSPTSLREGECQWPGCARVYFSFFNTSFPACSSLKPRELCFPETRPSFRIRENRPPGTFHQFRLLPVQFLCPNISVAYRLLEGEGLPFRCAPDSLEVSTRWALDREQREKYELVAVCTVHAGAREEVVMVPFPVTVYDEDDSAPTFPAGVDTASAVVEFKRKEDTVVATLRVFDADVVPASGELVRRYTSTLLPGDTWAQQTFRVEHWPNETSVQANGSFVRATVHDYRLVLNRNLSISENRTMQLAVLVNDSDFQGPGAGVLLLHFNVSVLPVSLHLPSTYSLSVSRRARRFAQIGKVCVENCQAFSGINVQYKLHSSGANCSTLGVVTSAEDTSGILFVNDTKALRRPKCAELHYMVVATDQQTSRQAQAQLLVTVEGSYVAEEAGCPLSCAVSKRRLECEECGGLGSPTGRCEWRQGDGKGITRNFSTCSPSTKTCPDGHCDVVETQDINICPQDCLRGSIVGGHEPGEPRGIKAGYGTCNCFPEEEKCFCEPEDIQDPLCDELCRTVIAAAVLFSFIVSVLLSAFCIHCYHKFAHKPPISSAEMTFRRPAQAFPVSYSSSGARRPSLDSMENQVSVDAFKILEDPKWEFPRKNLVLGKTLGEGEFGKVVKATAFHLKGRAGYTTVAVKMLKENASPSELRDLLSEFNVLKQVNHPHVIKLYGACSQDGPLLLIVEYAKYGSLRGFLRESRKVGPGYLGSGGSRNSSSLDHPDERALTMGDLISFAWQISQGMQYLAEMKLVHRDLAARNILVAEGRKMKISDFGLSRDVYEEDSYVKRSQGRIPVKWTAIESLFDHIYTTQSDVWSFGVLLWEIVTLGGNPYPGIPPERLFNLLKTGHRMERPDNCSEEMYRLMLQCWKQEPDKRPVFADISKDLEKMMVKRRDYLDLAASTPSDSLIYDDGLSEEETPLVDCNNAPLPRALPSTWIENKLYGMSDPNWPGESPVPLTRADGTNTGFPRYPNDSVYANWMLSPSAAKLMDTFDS
UniProt Q9BRS2: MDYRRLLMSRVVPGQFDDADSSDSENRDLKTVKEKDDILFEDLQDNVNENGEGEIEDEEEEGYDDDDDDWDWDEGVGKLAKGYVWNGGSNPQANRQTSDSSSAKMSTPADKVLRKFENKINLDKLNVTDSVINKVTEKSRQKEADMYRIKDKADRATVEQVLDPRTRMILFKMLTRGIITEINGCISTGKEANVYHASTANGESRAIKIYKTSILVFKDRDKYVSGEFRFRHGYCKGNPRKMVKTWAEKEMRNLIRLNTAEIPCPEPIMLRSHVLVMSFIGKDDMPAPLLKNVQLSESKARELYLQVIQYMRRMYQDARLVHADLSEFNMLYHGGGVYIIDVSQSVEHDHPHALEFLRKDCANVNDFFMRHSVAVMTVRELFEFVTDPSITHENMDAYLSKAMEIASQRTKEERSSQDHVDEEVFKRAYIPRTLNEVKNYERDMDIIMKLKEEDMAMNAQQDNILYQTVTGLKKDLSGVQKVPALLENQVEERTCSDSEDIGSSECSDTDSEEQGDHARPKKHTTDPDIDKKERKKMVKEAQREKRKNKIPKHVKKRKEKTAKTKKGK
UniProt Q13546: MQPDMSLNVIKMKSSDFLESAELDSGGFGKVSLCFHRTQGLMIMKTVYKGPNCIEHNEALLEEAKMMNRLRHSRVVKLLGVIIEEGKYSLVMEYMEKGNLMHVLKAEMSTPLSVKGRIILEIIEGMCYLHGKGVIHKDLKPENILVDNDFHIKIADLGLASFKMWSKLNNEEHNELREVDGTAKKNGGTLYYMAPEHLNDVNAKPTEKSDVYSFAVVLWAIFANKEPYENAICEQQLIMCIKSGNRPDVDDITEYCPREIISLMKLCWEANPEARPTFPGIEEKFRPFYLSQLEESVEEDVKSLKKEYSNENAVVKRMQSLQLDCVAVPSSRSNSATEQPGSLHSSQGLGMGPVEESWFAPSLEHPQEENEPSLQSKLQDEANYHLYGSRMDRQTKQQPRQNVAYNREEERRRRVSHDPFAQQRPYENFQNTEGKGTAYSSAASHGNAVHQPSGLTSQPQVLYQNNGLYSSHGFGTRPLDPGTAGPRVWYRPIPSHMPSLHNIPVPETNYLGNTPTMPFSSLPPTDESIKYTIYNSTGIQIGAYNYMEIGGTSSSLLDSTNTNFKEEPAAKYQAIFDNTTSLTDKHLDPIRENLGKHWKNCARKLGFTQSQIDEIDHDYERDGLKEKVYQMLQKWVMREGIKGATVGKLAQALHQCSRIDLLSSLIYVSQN
UniProt Q01974, whole entry: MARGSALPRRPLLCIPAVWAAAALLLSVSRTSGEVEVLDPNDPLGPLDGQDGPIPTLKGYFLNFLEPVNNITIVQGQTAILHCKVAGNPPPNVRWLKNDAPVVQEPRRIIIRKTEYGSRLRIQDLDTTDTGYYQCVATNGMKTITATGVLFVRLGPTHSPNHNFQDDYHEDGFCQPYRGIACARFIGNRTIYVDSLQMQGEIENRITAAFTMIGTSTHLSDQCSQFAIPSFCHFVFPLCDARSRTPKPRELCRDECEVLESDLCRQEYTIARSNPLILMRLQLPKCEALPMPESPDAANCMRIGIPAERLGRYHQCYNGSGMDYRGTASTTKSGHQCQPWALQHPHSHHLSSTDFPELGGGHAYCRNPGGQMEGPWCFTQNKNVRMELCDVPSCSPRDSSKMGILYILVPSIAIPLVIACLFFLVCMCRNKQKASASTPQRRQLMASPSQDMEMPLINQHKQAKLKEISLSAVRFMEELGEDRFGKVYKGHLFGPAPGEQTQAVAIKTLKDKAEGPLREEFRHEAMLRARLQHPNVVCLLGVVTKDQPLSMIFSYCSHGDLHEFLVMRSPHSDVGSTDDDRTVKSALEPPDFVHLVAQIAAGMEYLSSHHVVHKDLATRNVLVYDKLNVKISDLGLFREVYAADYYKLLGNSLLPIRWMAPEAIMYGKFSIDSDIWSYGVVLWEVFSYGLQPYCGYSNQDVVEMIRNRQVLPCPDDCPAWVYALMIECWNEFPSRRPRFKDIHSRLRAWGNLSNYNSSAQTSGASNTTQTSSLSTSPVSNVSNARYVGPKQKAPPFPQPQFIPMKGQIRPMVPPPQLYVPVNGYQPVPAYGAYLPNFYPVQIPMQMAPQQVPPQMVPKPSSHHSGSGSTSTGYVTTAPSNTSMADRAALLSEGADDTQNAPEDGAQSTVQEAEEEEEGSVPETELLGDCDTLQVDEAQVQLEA
UniProt Q15418, whole entry: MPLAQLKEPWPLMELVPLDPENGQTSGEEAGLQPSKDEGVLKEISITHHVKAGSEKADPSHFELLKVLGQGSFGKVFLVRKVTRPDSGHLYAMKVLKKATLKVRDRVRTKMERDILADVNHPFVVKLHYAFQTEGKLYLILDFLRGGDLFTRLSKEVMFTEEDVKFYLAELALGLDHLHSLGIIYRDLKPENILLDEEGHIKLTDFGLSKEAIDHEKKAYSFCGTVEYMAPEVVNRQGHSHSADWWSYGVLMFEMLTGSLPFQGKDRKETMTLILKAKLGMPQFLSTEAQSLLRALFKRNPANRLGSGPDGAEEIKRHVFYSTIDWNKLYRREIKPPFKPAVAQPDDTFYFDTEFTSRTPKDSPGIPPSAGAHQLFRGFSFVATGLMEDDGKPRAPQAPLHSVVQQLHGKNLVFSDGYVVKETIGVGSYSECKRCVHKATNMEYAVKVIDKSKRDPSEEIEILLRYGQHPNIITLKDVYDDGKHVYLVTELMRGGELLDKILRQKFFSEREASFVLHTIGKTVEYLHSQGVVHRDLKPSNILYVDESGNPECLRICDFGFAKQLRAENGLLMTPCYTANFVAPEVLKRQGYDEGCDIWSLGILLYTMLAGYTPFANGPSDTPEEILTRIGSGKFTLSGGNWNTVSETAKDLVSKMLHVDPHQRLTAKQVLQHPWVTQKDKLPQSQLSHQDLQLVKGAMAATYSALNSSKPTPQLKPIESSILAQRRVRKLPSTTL
UniProt Q9NYA1, whole entry: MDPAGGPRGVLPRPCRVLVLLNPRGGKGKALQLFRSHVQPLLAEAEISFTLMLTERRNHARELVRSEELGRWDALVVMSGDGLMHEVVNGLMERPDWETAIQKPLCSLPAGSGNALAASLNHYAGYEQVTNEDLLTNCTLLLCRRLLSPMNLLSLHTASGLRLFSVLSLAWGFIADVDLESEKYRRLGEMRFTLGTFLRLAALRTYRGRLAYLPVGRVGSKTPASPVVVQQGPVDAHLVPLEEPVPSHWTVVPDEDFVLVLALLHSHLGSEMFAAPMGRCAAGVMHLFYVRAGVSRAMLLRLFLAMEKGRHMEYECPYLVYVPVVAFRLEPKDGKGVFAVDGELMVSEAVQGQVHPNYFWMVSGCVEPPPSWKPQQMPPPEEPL
UniProt Q9Y6E0: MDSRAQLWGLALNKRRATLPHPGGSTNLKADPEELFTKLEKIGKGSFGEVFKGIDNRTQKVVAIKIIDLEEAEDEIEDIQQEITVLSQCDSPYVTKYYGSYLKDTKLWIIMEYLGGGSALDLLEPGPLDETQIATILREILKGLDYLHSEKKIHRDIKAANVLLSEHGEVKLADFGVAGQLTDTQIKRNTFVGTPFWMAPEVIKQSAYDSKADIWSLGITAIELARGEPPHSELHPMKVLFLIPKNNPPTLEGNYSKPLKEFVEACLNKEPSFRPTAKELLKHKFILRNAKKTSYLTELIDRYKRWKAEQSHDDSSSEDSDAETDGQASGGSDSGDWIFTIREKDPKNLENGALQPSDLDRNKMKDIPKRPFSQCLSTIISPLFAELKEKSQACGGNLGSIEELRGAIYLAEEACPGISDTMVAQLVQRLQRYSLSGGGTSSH

Tests used:
Assay in all cases: kinase-Nluc reporter destabilization hit call (1 = scored as downregulated) (binary); higher = compound decreases kinase abundance
Conditions in all cases: K562; 2-18 h
[1] = biological target: RET (UniProt P07949)
[2] = biological target: RET_M918T (clone: RET_mut) (UniProt P07949)
[3] = biological target: RIOK1 (UniProt Q9BRS2)
[4] = biological target: RIPK1 (UniProt Q13546)
[5] = biological target: RIPK2 (UniProt O43353)
[6] = biological target: ROR2 (UniProt Q01974)
[7] = biological target: RPS6KA1 (UniProt Q15418)
[8] = biological target: SPHK1 (UniProt Q9NYA1)
[9] = biological target: SRC (UniProt P12931)
[10] = biological target: STK24 (UniProt Q9Y6E0)

Measured: kinase-Nluc reporter destabilization hit call

Cc1c(C(=O)N2CCOc3ccc(-c4ccc(N)nc4)cc3C2)ccc(S(C)(=O)=O)c1F (10 µM)
inactive: [1] 0 | [2] 0 | [3] 0 | [4] 0 | [5] 0 | [6] 0 | [7] 0 | [8] 0 | [9] 0 | [10] 0

CCCn1cnc2c(NCc3ccccc3)nc(NC(CC)CO)nc21 (stereo not given) [Ca2+ channel agonist 1] (2.5 µM)
inactive: [1] 0 | [2] 0 | [3] 0 | [4] 0 | [5] 0 | [6] 0 | [7] 0 | [8] 0 | [9] 0 | [10] 0

Nc1nc(OCC2CCCCC2)c2[nH]cnc2n1 (10 µM)
inactive: [1] 0 | [2] 0 | [3] 0 | [4] 0 | [5] 0 | [6] 0 | [7] 0 | [8] 0 | [9] 0 | [10] 0

CC(C)n1cnc2c(NCc3cccc(C(F)(F)F)c3)ncnc21 [Longdaysin] (10 µM)
inactive: [1] 0 | [2] 0 | [3] 0 | [4] 0 | [5] 0 | [6] 0 | [7] 0 | [8] 0 | [9] 0 | [10] 0

COc1cc(OC)cc(N(CCNC(C)C)c2ccc3ncc(-c4cnn(C)c4)nc3c2)c1 [Erdafitinib] (2.5 µM)
inactive: [1] 0 | [2] 0 | [3] 0 | [4] 0 | [5] 0 | [6] 0 | [7] 0 | [8] 0 | [9] 0 | [10] 0

C=CC(=O)Nc1ccc2ncnc(Nc3cccc(Br)c3)c2c1 (10 µM)
inactive: [1] 0 | [2] 0 | [3] 0 | [4] 0 | [5] 0 | [6] 0 | [7] 0 | [8] 0 | [9] 0 | [10] 0

CCc1nc(-c2cccc(C)c2)c(-c2ccnc(NC(=O)c3ccccc3)c2)s1 (10 µM)
inactive: [1] 0 | [2] 0 | [3] 0 | [4] 0 | [5] 0 | [6] 0 | [7] 0 | [8] 0 | [9] 0 | [10] 0

O=c1cc(-c2ccccc2)oc2c(O)c(O)ccc12 [7,8-Dihydroxyflavone] (10 µM)
inactive: [1] 0 | [2] 0 | [3] 0 | [4] 0 | [5] 0 | [6] 0 | [7] 0 | [8] 0 | [9] 0 | [10] 0

CC1(C)CC=C(c2nc(C3CC(C)(C)OC(C)(C)C3)ccc2NC(=O)c2nc(C#N)c[nH]2)CC1 [Edicotinib] (2.5 µM)
inactive: [1] 0 | [2] 0 | [3] 0 | [4] 0 | [5] 0 | [6] 0 | [7] 0 | [8] 0 | [9] 0 | [10] 0

Nc1ncnc2c1c(-c1cccc(OCc3ccccc3)c1)cn2C1CC(CN2CCCC2)C1 (stereo not given) (2.5 µM)
inactive: [1] 0 | [2] 0 | [3] 0 | [4] 0 | [5] 0 | [6] 0 | [7] 0 | [8] 0 | [9] 0 | [10] 0

O=c1oc2c(C3OCCCO3)c(O)ccc2c2c1CNCC2 (10 µM)
inactive: [1] 0 | [2] 0 | [3] 0 | [4] 0 | [5] 0 | [6] 0 | [7] 0 | [8] 0 | [9] 0 | [10] 0

COc1cc2ncnc(Nc3ccc(O)cc3)c2cc1OC (10 µM)
inactive: [1] 0 | [2] 0 | [3] 0 | [4] 0 | [5] 0 | [6] 0 | [7] 0 | [8] 0 | [9] 0 | [10] 0

C=CC(=O)N1CCC[C@@H](n2nc(-c3ccc(Oc4ccccc4)cc3)c(C(N)=O)c2N)C1 [Btk inhibitor 2] (10 µM)
inactive: [1] 0 | [2] 0 | [3] 0 | [4] 0 | [5] 0 | [6] 0 | [7] 0 | [8] 0 | [9] 0 | [10] 0

Arranged by length of the SMILES (smallest number first): some entries from above
O=c1cc(-c2ccccc2)oc2c(O)c(O)ccc12 [7,8-Dihydroxyflavone] (10 µM)
inactive: [1] 0 | [2] 0 | [3] 0 | [4] 0 | [5] 0 | [6] 0 | [7] 0 | [8] 0 | [9] 0 | [10] 0

O=c1oc2c(C3OCCCO3)c(O)ccc2c2c1CNCC2 (10 µM)
inactive: [1] 0 | [2] 0 | [3] 0 | [4] 0 | [5] 0 | [6] 0 | [7] 0 | [8] 0 | [9] 0 | [10] 0

C=CC(=O)N1CCC[C@@H](n2nc(-c3ccc(Oc4ccccc4)cc3)c(C(N)=O)c2N)C1 [Btk inhibitor 2] (10 µM)
inactive: [1] 0 | [2] 0 | [3] 0 | [4] 0 | [5] 0 | [6] 0 | [7] 0 | [8] 0 | [9] 0 | [10] 0

Later entries.

CCCCC[C@H](O)CC(=O)CCc1ccc(O)c(OC)c1 [[6]-Gingerol] (10 µM)
inactive: [1] 0 | [2] 0 | [3] 0 | [4] 0 | [5] 0 | [6] 0 | [7] 0 | [8] 0 | [9] 0 | [10] 0

COc1ccc2c(NC(=O)Nc3cccc(C(F)(F)F)n3)ccnc2c1 (10 µM)
inactive: [1] 0 | [2] 0 | [3] 0 | [4] 0 | [5] 0 | [6] 0 | [7] 0 | [8] 0 | [9] 0 | [10] 0

CC(C)=CC/C=C(\C)[C@H]1CC[C@]2(C)[C@@H]1[C@H](O)C[C@@H]1[C@@]3(C)CC[C@H](O[C@@H]4O[C@H](CO)[C@@H](O)[C@H](O)[C@H]4O[C@@H]4O[C@H](CO)[C@@H](O)[C@H](O)[C@H]4O)C(C)(C)[C@@H]3CC[C@]12C [Ginsenoside Rg5] (10 µM)
inactive: [1] 0 | [2] 0 | [3] 0 | [4] 0 | [5] 0 | [6] 0 | [7] 0 | [8] 0 | [9] 0 | [10] 0

CNC(=O)c1cccc2cc(Oc3ccnc4cc(OCC5(N)CC5)c(OC)cc34)ccc12 [Lucitanib] (10 µM)
inactive: [1] 0 | [2] 0 | [3] 0 | [4] 0 | [5] 0 | [6] 0 | [7] 0 | [8] 0 | [9] 0 | [10] 0

Cc1cc(C(=O)Nc2cccc(C(=O)Nc3cccc(C(F)(F)F)c3)c2)on1 (10 µM)
inactive: [1] 0 | [2] 0 | [3] 0 | [4] 0 | [5] 0 | [6] 0 | [7] 0 | [8] 0 | [9] 0 | [10] 0

N#CC(=Cc1ccc(O)c(O)c1)C(=O)NCc1ccccc1 (mixture of isomers) (10 µM)
inactive: [1] 0 | [2] 0 | [3] 0 | [4] 0 | [5] 0 | [6] 0 | [7] 0 | [8] 0 | [9] 0 | [10] 0

CN(C)CCOc1ccc(-c2nc(-c3ccncc3)c(-c3ccc4c(c3)CC/C4=N\O)[nH]2)cc1 (10 µM)
inactive: [1] 0 | [2] 0 | [3] 0 | [4] 0 | [5] 0 | [6] 0 | [7] 0 | [8] 0 | [9] 0 | [10] 0

Cc1c[nH]c(/C=C2\C(=O)Nc3ccccc32)c1CCC(=O)O (10 µM)
inactive: [1] 0 | [2] 0 | [3] 0 | [4] 0 | [5] 0 | [6] 0 | [7] 0 | [8] 0 | [9] 0 | [10] 0

CCN(CC)CCCCNc1ncc2cc(-c3c(Cl)cccc3Cl)c(NC(=O)NC(C)(C)C)nc2n1 (2.5 µM)
inactive: [1] 0 | [2] 0 | [3] 0 | [4] 0 | [5] 0 | [6] 0 | [7] 0 | [8] 0 | [9] 0 | [10] 0

CC(C)(C)n1nc(Cc2cccc3ccccc23)c2c(N)ncnc21 (10 µM)
inactive: [1] 0 | [2] 0 | [3] 0 | [4] 0 | [5] 0 | [6] 0 | [7] 0 | [8] 0 | [9] 0 | [10] 0

C[C@H](CN(C)C)Oc1nc(Nc2cc3cccc(Cl)c3cn2)cnc1C#N (10 µM)
inactive: [1] 0 | [2] 0 | [3] 0 | [4] 0 | [5] 0 | [6] 0 | [7] 0 | [8] 0 | [9] 0 | [10] 0

O=C(Nc1ccc(-c2ccnc(Nc3ccc(N4CCOCC4)cc3)n2)cc1)C1CCCN1 (stereo not given) (10 µM)
inactive: [1] 0 | [2] 0 | [3] 0 | [4] 0 | [5] 0 | [6] 0 | [7] 0 | [8] 0 | [9] 0 | [10] 0

CN(C)C(=O)/C(C#N)=C/c1ccc(-c2nc3cnc4[nH]ccc4c3n2C2CCCCC2)o1 (10 µM)
inactive: [1] 0 | [2] 0 | [3] 0 | [4] 0 | [5] 0 | [6] 0 | [7] 0 | [8] 0 | [9] 0 | [10] 0

CCN1CCN(c2ccc(Nc3cc(N(C)C(=O)Nc4c(Cl)c(OC)cc(OC)c4Cl)ncn3)cc2)CC1 [Infigratinib] (10 µM)
inactive: [1] 0 | [2] 0 | [3] 0 | [4] 0 | [5] 0 | [6] 0 | [7] 0 | [8] 0 | [9] 0 | [10] 0

Cc1nc(N)sc1-c1ccnc(Nc2ccc(N3CCOCC3)cc2)n1 (10 µM)
inactive: [1] 0 | [2] 0 | [3] 0 | [4] 0 | [5] 0 | [6] 0 | [7] 0 | [8] 0 | [9] 0 | [10] 0

NS(=O)(=O)c1ccc(Nc2nc(OCC3CCCCC3)c3[nH]cnc3n2)cc1 (10 µM)
inactive: [1] 0 | [2] 0 | [3] 0 | [4] 0 | [5] 0 | [6] 0 | [7] 0 | [8] 0 | [9] 0 | [10] 0

O=C(NOC[C@H](O)CO)c1ccc(F)c(F)c1Nc1ccc(I)cc1F (2.5 µM)
inactive: [1] 0 | [2] 0 | [3] 0 | [4] 0 | [5] 0 | [6] 0 | [7] 0 | [8] 0 | [9] 0 | [10] 0
